Test results published in patent US20080249156A1, “Combinations of statins and anti-obesity agent and glitazones” (priority 2007, published 2008).
Read-outs that look alike come from different tables or passages of the source. For at least one compound, name, drawing or mass did not settle the structure.

Experiments:
[1] = with atorvastatin, orlistat and metformin in the regimen
[2] = with atorvastatin, orlistat and metformin in the regimen; remark: listed apart in the source
[3] = Example 2, changed to rosiglitazone 2 mg twice daily
[4] = Example 3, changed to rosiglitazone 4 mg twice daily

CN(CCOc1ccc(CC2SC(=O)NC2=O)cc1)c1ccccn1 (stereo not shown) [rosiglitazone]
maintained: weight result after change of rosiglitazone regimen [1, 3] | weight result after change of rosiglitazone regimen [1, 4] | cholesterol result after change of rosiglitazone regimen [2, 3] | cholesterol result after change of rosiglitazone regimen [2, 4]
